Experiment [1] has as its target T1, Myc-GFP-STIL (wild type), not phosphorylated by co-expressed active PLK4 (human) (UniProt Q15468).
T1 sequence: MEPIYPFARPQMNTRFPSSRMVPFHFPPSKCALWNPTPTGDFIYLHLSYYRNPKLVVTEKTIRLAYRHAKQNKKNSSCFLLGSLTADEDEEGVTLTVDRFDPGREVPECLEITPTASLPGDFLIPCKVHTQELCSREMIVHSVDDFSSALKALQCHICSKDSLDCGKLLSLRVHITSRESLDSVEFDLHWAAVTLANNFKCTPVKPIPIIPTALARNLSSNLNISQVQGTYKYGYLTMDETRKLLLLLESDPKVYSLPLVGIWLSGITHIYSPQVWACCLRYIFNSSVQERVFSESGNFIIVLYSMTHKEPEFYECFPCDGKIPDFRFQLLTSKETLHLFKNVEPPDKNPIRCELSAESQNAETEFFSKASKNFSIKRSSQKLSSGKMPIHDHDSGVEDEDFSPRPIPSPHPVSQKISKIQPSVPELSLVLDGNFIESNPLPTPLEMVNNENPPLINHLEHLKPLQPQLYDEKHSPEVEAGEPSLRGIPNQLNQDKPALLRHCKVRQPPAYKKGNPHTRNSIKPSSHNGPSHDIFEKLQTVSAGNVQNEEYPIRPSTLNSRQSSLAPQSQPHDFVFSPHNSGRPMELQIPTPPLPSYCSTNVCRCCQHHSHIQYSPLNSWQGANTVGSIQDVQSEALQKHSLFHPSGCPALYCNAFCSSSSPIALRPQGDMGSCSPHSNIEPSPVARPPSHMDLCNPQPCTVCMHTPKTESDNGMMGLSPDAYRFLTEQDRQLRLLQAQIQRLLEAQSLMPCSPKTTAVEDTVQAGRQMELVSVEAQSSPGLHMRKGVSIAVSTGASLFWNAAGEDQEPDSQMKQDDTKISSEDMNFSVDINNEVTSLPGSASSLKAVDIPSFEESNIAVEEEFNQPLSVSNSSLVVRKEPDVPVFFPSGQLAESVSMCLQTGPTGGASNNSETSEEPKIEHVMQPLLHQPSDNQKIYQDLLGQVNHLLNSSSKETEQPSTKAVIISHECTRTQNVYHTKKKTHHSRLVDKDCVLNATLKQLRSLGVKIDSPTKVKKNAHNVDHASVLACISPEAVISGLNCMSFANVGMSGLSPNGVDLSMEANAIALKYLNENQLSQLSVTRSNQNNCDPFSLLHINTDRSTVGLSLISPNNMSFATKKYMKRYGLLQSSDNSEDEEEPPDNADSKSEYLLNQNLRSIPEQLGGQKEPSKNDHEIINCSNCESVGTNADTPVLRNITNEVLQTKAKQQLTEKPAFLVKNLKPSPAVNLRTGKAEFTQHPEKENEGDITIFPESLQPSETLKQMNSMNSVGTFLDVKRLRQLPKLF
Description: co-IP; HEK293FT cells co-transfected, with kinase active or kinase dead PLK4^Δ24-mCherry where stated; lysis buffer 10 mM Tris pH 7.5, 0.1% Triton X-100, 250 mM NaCl, 1 mM EDTA, phosphatase inhibitors; Myc-GFP-STIL captured on beads coupled to GFP-binding protein; immunoblot.

Chains of the proteins cited; added tags and fusions are not shown.
UniProt Q86VV8: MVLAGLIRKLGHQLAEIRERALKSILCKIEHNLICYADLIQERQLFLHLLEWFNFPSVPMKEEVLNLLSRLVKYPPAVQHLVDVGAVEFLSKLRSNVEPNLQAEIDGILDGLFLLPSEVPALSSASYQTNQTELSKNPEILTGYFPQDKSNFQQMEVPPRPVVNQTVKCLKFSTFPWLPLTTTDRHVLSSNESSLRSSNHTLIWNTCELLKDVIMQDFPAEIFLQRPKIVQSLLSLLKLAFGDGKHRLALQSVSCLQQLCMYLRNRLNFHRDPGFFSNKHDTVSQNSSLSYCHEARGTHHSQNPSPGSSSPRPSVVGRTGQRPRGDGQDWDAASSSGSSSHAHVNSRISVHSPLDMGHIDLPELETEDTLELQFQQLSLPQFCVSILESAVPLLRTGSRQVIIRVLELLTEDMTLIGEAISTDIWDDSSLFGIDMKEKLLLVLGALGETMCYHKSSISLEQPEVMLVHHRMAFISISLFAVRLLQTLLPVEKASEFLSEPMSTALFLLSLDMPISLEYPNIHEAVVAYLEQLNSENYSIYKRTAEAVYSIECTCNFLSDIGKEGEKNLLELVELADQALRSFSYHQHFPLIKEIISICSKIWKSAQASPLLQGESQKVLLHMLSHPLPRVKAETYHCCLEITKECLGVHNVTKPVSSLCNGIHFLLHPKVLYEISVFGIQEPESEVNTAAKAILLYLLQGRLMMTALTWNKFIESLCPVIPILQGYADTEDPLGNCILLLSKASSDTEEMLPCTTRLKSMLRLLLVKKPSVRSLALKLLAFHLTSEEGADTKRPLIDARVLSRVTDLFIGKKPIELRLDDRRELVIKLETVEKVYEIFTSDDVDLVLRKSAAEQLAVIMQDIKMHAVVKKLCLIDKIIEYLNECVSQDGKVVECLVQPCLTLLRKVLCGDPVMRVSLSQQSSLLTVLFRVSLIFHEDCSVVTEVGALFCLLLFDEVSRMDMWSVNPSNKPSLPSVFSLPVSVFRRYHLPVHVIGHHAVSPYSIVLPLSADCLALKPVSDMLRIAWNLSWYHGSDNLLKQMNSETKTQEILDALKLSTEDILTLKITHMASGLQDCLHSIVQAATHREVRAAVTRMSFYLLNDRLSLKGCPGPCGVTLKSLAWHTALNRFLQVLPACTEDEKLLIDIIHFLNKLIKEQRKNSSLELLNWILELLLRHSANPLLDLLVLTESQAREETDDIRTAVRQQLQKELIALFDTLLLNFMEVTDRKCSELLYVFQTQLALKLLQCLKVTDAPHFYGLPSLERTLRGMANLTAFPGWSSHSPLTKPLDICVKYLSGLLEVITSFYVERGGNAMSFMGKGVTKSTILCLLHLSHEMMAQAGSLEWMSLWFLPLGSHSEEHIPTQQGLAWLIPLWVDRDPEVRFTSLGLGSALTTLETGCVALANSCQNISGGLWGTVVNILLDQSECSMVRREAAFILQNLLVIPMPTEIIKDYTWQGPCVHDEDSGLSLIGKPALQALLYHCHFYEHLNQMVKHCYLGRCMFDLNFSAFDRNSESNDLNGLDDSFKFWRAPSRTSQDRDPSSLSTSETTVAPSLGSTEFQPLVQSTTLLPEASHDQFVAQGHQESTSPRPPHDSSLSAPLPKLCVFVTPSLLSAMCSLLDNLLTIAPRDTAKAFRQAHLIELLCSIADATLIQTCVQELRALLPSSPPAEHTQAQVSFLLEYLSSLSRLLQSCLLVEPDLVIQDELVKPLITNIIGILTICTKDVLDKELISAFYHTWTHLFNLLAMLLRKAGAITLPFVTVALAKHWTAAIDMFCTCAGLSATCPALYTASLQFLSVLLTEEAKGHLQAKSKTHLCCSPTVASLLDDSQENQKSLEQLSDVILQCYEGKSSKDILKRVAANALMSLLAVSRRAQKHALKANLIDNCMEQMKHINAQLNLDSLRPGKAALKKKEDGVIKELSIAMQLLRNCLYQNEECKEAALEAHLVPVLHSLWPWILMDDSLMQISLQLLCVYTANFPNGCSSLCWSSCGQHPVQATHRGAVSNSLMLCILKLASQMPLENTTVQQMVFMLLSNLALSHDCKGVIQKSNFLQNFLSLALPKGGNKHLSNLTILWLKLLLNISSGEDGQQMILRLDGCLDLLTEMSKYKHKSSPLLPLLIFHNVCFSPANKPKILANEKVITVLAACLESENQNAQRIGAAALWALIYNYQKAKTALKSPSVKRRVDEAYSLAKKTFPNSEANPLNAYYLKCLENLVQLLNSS

For experiment [2], the target named is T2, Myc-GFP-Ana2 (WT), without co-expressed DmPLK4^SBM (D. melanogaster) (UniProt Q9XZ31).
T2 sequence: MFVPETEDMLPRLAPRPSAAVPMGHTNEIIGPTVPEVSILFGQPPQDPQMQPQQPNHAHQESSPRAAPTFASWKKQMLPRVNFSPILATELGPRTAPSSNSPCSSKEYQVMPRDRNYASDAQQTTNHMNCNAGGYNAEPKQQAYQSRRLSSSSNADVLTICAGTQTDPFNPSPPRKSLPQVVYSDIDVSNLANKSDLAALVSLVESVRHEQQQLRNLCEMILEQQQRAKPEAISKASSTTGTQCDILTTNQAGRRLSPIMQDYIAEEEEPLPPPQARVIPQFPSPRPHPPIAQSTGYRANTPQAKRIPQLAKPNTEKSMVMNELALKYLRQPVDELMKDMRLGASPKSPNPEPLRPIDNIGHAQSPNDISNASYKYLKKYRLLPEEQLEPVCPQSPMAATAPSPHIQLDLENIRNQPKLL
Description: co-IP; Drosophila S2 cells transfected with Myc-GFP-Ana2 and Flag-DmSas4 in the presence or absence of DmPLK4^SBM-mCherry; harvested 48 hr later; co-immunoprecipitation and immunoblot. In general terms: A western blot detects proteins with antibodies after separation by electrophoresis.

Experiment [3] concerns the target T3, Myc-GFP-Ana2 S38A co-expressed with stabilized DmPLK4^SBM-mCherry (D. melanogaster), Q9XZ31.
T3 chain: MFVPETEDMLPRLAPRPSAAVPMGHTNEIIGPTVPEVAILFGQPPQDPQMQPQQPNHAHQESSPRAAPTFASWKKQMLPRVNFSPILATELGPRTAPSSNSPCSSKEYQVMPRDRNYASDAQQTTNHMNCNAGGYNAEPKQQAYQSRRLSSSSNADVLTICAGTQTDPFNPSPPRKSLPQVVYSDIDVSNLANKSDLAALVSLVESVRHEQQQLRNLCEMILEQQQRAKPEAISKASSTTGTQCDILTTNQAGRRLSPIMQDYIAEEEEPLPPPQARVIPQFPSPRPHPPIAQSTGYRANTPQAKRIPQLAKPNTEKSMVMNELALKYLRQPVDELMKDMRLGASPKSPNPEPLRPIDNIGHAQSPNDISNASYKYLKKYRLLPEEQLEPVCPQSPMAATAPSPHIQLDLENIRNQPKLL
The experiment is described as above. Conditions: remark: other sources report otherwise.

Experiment [4] addresses T4, Myc-GFP-Ana2 S38A, without co-expressed DmPLK4^SBM (D. melanogaster), Q9XZ31.
T4 chain: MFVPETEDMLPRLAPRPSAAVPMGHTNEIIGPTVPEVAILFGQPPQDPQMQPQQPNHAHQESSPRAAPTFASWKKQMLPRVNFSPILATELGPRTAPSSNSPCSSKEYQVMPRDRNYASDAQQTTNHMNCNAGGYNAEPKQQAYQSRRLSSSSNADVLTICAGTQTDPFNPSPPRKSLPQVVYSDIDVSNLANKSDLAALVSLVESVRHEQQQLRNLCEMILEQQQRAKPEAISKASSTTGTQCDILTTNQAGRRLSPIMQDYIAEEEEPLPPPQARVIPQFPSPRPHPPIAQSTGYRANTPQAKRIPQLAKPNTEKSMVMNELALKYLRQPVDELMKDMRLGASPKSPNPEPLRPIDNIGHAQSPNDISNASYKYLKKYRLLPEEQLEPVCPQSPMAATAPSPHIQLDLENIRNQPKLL
Described as above. Conditions: remark: other sources report otherwise.

Results are given in words; binding and its absence hold for the method and conditions named. Binding seen in cells or lysates may run through a third protein. Some binding calls cover weakened binding; strength is not graded here. Tags and fused reporters may be left off the sequences shown.

As for RTTN (from UniProt Q86VV8 1-2226), in experiment [1], the binding entry is “binds”.

B1: CEP85 (protein, UniProt Q6P2H3 1-762)
chain: MAMQEKYPTEGISHVTSPSSDVIQKGSSLGTEWQTPVISEPFRSRFSRCSSVADSGDTAIGTSCSDIAEDFCSSSGSPPFQPIKSHVTIPTAHVMPSTLGTSPAKPNSTPVGPSSSKLPLSGLAESVGMTRNGDLGAMKHSPGLSRDLMYFSGATGENGIEQSWFPAVGHERQEEARKFDIPSMESTLNQSAMMETLYSDPHHRVRFHNPRTSTSKELYRVLPEAKKAPGSGAVFERNGPHSNSSGVLPLGLQPAPGLSKPLPSQVWQPSPDTWHPREQSCELSTCRQQLELIRLQMEQMQLQNGAICHHPAAFGPSLPILEPAQWISILNSNEHLLKEKELLIDKQRKHISQLEQKVRESELQVHSALLGRPAPFGDVCLLRLQELQRENTFLRAQFAQKTEALSREKIDLEKKLSASEVEVQLIRESLKVALQKHSEEVKKQEERVKGRDKHINNLKKKCQKESEQNREKQQRIETLERYLADLPTLEDHQKQSQQLKDSELKSTELQEKVTELESLLEETQAICREKEIQLESLRQREAEFSSAGHSLQDKQSVEETSGEGPEVEMESWQKRYDSLQKIVEKQQQKMDQLRSQVQSLEQEVAQEEGTSQALREEAQRRDSALQQLRTAVKELSVQNQDLIEKNLTLQEHLRQAQPGSPPSPDTAQLALELHQELASCLQDLQAVCSIVTQRAQGHDPNLSLLLGIHSAQHPETQLDLQKPDVIKRKLEEVQQLRRDIEDLRTTMSDRYAQDMGENCVTQ
Take B1: the binding entry in experiment [1] is “binds”.

B2: Flag-DmSas4 (natural protein, D. melanogaster, UniProt Q9VI72 1-901, looked up)
chain: MQEAGESPVGMPLSQEAIAQRLAALSRWQDEQKRLLQERQSNHRVLLGLEQRNMYKMLGLLHQETESHENSVLEEWDEEHSIQMPRLAADPDEHEPEISMADPQPAKPKRPFLRRGEGLKQRFKINPDQLRLENLPRYKFANAHPQFRTPQMKKGILKKQVKSPPNPAPPPAPKPSAQLDDLNEQRFQQMLIGKNACSSTPDLKSSYASSTTASSTSPRVRFVEQKSRAGQTTHADDEASSEASPMTGVCWAKVLDTQSIKPAQIQRRSAQIRVEDDSNVSIFELLEQKATEGNIDMNSSCIRTFMARKDQRRRVADDSDHIVVTQQVRQMRLQPQVDQMLVQELQEGDEEDTEPSSDQTLTMTPIQVGNTKVRVRFSDSNDTHEYSDATSLNDGSNIQLFEQFKSALFQALEQKKKSSPSKESDEPITKDLQEKANLVRTRLEELETEIATFKEQNAQLLRLRQQHELEKAKCTQDHMEAMERVHDEKIQAEIYLHDERMKIEEERRKFEQQMRLQKSNANSKEKKEIAALKQEVEGLQLQLKQKEQAHVSAQARLRAQLRASEKEQRNYRDEIELLRKENKRLEQELVKIGRENNSKMLQEINRNIARLAPKVLPSATMSDILDENGRRTQSLDGTAGKPAKQREAQNRRQSSGSAQVRSRSRSLSRNKKTPYALDESYASSSSVESEEVQPPVTAPKAATPPPAANSSSDFKREITNADGSKDIWYPNGNLKKISADGMNLRMLYFNKDIKETNIREGTVKYYYAETNTWHTSYLDGLEILEFPNGQTEHRRKDGTVEIHFPNNSIKIVDPSDTEKLEEWRYADGTHLVQLRNGDKILNLPNGQKEIHTKLNKRREYPDGTVKLVYPDGSQETRYSNGRVRLKDKDGKLIMDTDYAKY
notes: Sas-4 (DmSas4), D. melanogaster; also called CPAP orthologue DmSas4; source: Drosophila S2 cells, transfected, in lysate; not shown: FLAG, N-terminal, kept
As to B2, the binding entry in experiment [2] is “binds”.

B3: Flag-DmSas4, Q9VI72 1-901 (protein)
chain: MQEAGESPVGMPLSQEAIAQRLAALSRWQDEQKRLLQERQSNHRVLLGLEQRNMYKMLGLLHQETESHENSVLEEWDEEHSIQMPRLAADPDEHEPEISMADPQPAKPKRPFLRRGEGLKQRFKINPDQLRLENLPRYKFANAHPQFRTPQMKKGILKKQVKSPPNPAPPPAPKPSAQLDDLNEQRFQQMLIGKNACSSTPDLKSSYASSTTASSTSPRVRFVEQKSRAGQTTHADDEASSEASPMTGVCWAKVLDTQSIKPAQIQRRSAQIRVEDDSNVSIFELLEQKATEGNIDMNSSCIRTFMARKDQRRRVADDSDHIVVTQQVRQMRLQPQVDQMLVQELQEGDEEDTEPSSDQTLTMTPIQVGNTKVRVRFSDSNDTHEYSDATSLNDGSNIQLFEQFKSALFQALEQKKKSSPSKESDEPITKDLQEKANLVRTRLEELETEIATFKEQNAQLLRLRQQHELEKAKCTQDHMEAMERVHDEKIQAEIYLHDERMKIEEERRKFEQQMRLQKSNANSKEKKEIAALKQEVEGLQLQLKQKEQAHVSAQARLRAQLRASEKEQRNYRDEIELLRKENKRLEQELVKIGRENNSKMLQEINRNIARLAPKVLPSATMSDILDENGRRTQSLDGTAGKPAKQREAQNRRQSSGSAQVRSRSRSLSRNKKTPYALDESYASSSSVESEEVQPPVTAPKAATPPPAANSSSDFKREITNADGSKDIWYPNGNLKKISADGMNLRMLYFNKDIKETNIREGTVKYYYAETNTWHTSYLDGLEILEFPNGQTEHRRKDGTVEIHFPNNSIKIVDPSDTEKLEEWRYADGTHLVQLRNGDKILNLPNGQKEIHTKLNKRREYPDGTVKLVYPDGSQETRYSNGRVRLKDKDGKLIMDTDYAKY
For B3, the binding entry in experiment [3] and in experiment [4] was “binds” throughout.

The values above are taken from publication PMC6570480, “PLK4 promotes centriole duplication by phosphorylating STIL to link the procentriole cartwheel to the microtubule wall” (eLife, 2019).
